From patent US20160289728A1, “METHOD FOR DETECTING FLUORESCENCE OR ABSORBANCE, METHOD FOR SUPPRESSING BACKGROUND, METHOD FOR MEASURING ADP, METHOD FOR MEASURING ACTIVITY OF ADP-SYNTHESIZING ENZYME, AND METHOD FOR MEASURING ACTIVITY OF GLUCOSYLTRANSFERASE” (The University of Tokyo, priority 2013, published 2016)

Assays:
Type in all cases: biochemical
[1] = Quantification of ADP in the presence of maleimides or iodoacetamide (Example 19); settings: 20 μM ADP, 40 mM SH reagent
[2] = Quantification of ADP in the presence of DTT, 2-mercaptoethanol or TCEP (Example 20); settings: 20 μM ADP, 40 mM SH reagent
[3] = ADP calibration by enzymatic coupling with or without DTT and SH reagent (Examples 10, 12, 13); settings: 20 μM ADP, 2 mM DTT

SMILES | S/B ratio ([1]; 3 mM DTT) | S/B ratio ([1]; 6 mM DTT) | S/B ratio ([2]; 6 mM 2-mercaptoethanol) | S/B ratio ([2]; 6 mM DTT) | S/B ratio ([2]; 6 mM TCEP) | S/B ratio ([3]; 20 mM SH reagent) | increase of S/B ratio versus no SH reagent ([3]; 20 mM SH reagent) | S/B ratio ([3]; 8 mM SH reagent)
O=C1C=CC(=O)N1CCS(=O)(=O)O [N-(2-sulfoethyl)maleimide] | 24.0 | 21.0 |  |  |  |  |  | 
CCN1C(=O)C=CC1=O [N-ethylmaleimide] | 23.8 | 22.5 | 19.6 | 18.2 | 19.9 | 36.7 | about 9 times | 
NC(=O)CI [iodoacetamide] | 18.2 | 13.3 | 18.8 | 9.0 | 12.1 |  |  | 18.6
